{"source": "PubChem BioAssay AID652272 (Drosophila RNAi Screening Center, 2013)", "aim": "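Genome-wide knock-down search for components of Hedgehog signalling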 (primary screen)", "cell system": "Drosophila clone 8 (Cl8) cells", "knock-down reagent": "long dsRNA against Drosophila genes", "detection": "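Firefly light from a Hedgehog-responsive ptc promoter reporter and Renilla reference light, both read on a plate reader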", "reading the numbers": "firefly Hh reporter signal: higher = more ptc reporter light; Renilla reference signal: higher = more Renilla control light", "call rule": "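Hit when the z-score averaged over two replicates is under -2 or over +3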", "calls": "active = hit: reporter lowered or raised; inactive = not a hit", "note": "The screen tested about 21,000 reagents; this is an unselected part of those that have a named target and a result. Of all reagents, 503 (2.4%) got an active call. 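Raw plate light values, not normalised; calls rest on replicate z-scores that were not deposited; hits include reporter decreases as well as increases.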 Unmarked entries are inactive. Names joined by + are all predicted targets of the reagent. No sequences are given here. The record does not give: the amount of reagent, the time to read-out."}
{"Target gene": "CG7720", "DRSC id": "DRSC16306", "firefly Hh reporter signal, replicate 1": 1.23e5, "firefly Hh reporter signal, replicate 2": 97526, "Renilla reference signal, replicate 1": 3948, "Renilla reference signal, replicate 2": 3546}
{"Target gene": "CG7720", "DRSC id": "DRSC16307", "firefly Hh reporter signal, replicate 1": 5.10e5, "firefly Hh reporter signal, replicate 2": 71269, "Renilla reference signal, replicate 1": 3116, "Renilla reference signal, replicate 2": 3116}
{"Target gene": "Nep5", "DRSC id": "DRSC16004", "firefly Hh reporter signal, replicate 1": 84923, "firefly Hh reporter signal, replicate 2": 73653, "Renilla reference signal, replicate 1": 2267, "Renilla reference signal, replicate 2": 2248}
{"Target gene": "CG12995", "DRSC id": "DRSC19515", "firefly Hh reporter signal, replicate 1": 73200, "firefly Hh reporter signal, replicate 2": 1.50e5, "Renilla reference signal, replicate 1": 2055, "Renilla reference signal, replicate 2": 6077}
{"Target gene": "dmrt93B", "DRSC id": "DRSC15865", "firefly Hh reporter signal, replicate 1": 6.50e5, "firefly Hh reporter signal, replicate 2": 99660, "Renilla reference signal, replicate 1": 31536, "Renilla reference signal, replicate 2": 2784}
{"Target gene": "CG14244", "DRSC id": "DRSC14739", "firefly Hh reporter signal, replicate 1": 67671, "firefly Hh reporter signal, replicate 2": 1.06e5, "Renilla reference signal, replicate 1": 2642, "Renilla reference signal, replicate 2": 3425}
{"Target gene": "CG9663", "DRSC id": "DRSC00724", "firefly Hh reporter signal, replicate 1": 91553, "firefly Hh reporter signal, replicate 2": 59574, "Renilla reference signal, replicate 1": 4472, "Renilla reference signal, replicate 2": 2683}
{"Target gene": "CG43861", "DRSC id": "DRSC02170", "firefly Hh reporter signal, replicate 1": 97335, "firefly Hh reporter signal, replicate 2": 58253, "Renilla reference signal, replicate 1": 2528, "Renilla reference signal, replicate 2": 5024}
{"Target gene": "CG43861", "DRSC id": "DRSC02308", "firefly Hh reporter signal, replicate 1": 90800, "firefly Hh reporter signal, replicate 2": 45477, "Renilla reference signal, replicate 1": 2279, "Renilla reference signal, replicate 2": 3824}
{"Target gene": "cpb", "DRSC id": "DRSC00809", "firefly Hh reporter signal, replicate 1": 1.14e5, "firefly Hh reporter signal, replicate 2": 96480, "Renilla reference signal, replicate 1": 3810, "Renilla reference signal, replicate 2": 3974}
{"Target gene": "Obp56h", "DRSC id": "DRSC06433", "firefly Hh reporter signal, replicate 1": 1.17e5, "firefly Hh reporter signal, replicate 2": 43395, "Renilla reference signal, replicate 1": 3173, "Renilla reference signal, replicate 2": 3921}
{"Target gene": "CG14568", "DRSC id": "DRSC11729", "firefly Hh reporter signal, replicate 1": 1.37e5, "firefly Hh reporter signal, replicate 2": 1.66e5, "Renilla reference signal, replicate 1": 4400, "Renilla reference signal, replicate 2": 8978}
{"Target gene": "CG13014", "DRSC id": "DRSC19533", "firefly Hh reporter signal, replicate 1": 74048, "firefly Hh reporter signal, replicate 2": 1.89e5, "Renilla reference signal, replicate 1": 2672, "Renilla reference signal, replicate 2": 7465}
{"Target gene": "Cp16", "DRSC id": "DRSC11119", "firefly Hh reporter signal, replicate 1": 51751, "firefly Hh reporter signal, replicate 2": 48073, "Renilla reference signal, replicate 1": 5408, "Renilla reference signal, replicate 2": 3938}
{"Target gene": "haf", "DRSC id": "DRSC00381", "firefly Hh reporter signal, replicate 1": 92076, "firefly Hh reporter signal, replicate 2": 67021, "Renilla reference signal, replicate 1": 2316, "Renilla reference signal, replicate 2": 1840}
{"Target gene": "CG7914", "DRSC id": "DRSC20068", "firefly Hh reporter signal, replicate 1": 83141, "firefly Hh reporter signal, replicate 2": 2.25e5, "Renilla reference signal, replicate 1": 3001, "Renilla reference signal, replicate 2": 8752}
{"Target gene": "Ddrgk1", "DRSC id": "DRSC15897", "firefly Hh reporter signal, replicate 1": 1.01e5, "firefly Hh reporter signal, replicate 2": 91500, "Renilla reference signal, replicate 1": 4085, "Renilla reference signal, replicate 2": 4147}
{"Target gene": "CG31274 + MESK4", "DRSC id": "DRSC13202", "firefly Hh reporter signal, replicate 1": 50534, "firefly Hh reporter signal, replicate 2": 1.74e5, "Renilla reference signal, replicate 1": 10040, "Renilla reference signal, replicate 2": 3028}
{"Target gene": "CG11123", "DRSC id": "DRSC06040", "firefly Hh reporter signal, replicate 1": 1.08e5, "firefly Hh reporter signal, replicate 2": 48848, "Renilla reference signal, replicate 1": 2322, "Renilla reference signal, replicate 2": 4083}
{"Target gene": "CR33013", "DRSC id": "DRSC06286", "firefly Hh reporter signal, replicate 1": 70939, "firefly Hh reporter signal, replicate 2": 43271, "Renilla reference signal, replicate 1": 1736, "Renilla reference signal, replicate 2": 3304}
{"Target gene": "sxe2", "DRSC id": "DRSC15692", "firefly Hh reporter signal, replicate 1": 1.27e5, "firefly Hh reporter signal, replicate 2": 66763, "Renilla reference signal, replicate 1": 4844, "Renilla reference signal, replicate 2": 3075}

3 entries from above, reformatted.
Target gene,DRSC id,"firefly Hh reporter signal, replicate 1","firefly Hh reporter signal, replicate 2","Renilla reference signal, replicate 1","Renilla reference signal, replicate 2"
CG11123,DRSC06040,1.08e5,48848,2322,4083
CR33013,DRSC06286,70939,43271,1736,3304
sxe2,DRSC15692,1.27e5,66763,4844,3075
